Some of the results follow.
Tests used:
Assay in all cases: log2 fold change, soluble protein after heating vs DMSO (PISA); higher = thermal stabilisation; K562 lysate, 10 uM; active = over 0.2 and 3.5 SD of the protein, either way, in both replicates (recomputed)
[1] = compound: C1=CC=C(C=C1)[C@H](COC2=CC3=C(C=C2)NC(=O)N3)NC(=O)C4=CC=CN(C4=O)CC5=CC(=C(C=C5)F)F
Outline: (§1)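 Quantification was by TMTpro 16plex LC-MS/MS with equalised channel sums, applied to the supernatant after 21,000xg for 90 min. Samples were crude K562 extract at 1 mg/mL protein in PBS pH 7.4 with 1 mM MgCl2, treated with 10 μM compound for 30 min, heated for 3 min across 48°C-58°C, pooled and brought to 0.5% NP-40 at 4°C. Values are log-two fold changes in thermal stability relative to solvent controls, from duplicates.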

The chains behind the UniProt entries cited, without tags or fusion partners. Where a name states a change or a piece, a line headed by the entry shows the natural chain unless it says otherwise.
UniProt Q2NKJ3: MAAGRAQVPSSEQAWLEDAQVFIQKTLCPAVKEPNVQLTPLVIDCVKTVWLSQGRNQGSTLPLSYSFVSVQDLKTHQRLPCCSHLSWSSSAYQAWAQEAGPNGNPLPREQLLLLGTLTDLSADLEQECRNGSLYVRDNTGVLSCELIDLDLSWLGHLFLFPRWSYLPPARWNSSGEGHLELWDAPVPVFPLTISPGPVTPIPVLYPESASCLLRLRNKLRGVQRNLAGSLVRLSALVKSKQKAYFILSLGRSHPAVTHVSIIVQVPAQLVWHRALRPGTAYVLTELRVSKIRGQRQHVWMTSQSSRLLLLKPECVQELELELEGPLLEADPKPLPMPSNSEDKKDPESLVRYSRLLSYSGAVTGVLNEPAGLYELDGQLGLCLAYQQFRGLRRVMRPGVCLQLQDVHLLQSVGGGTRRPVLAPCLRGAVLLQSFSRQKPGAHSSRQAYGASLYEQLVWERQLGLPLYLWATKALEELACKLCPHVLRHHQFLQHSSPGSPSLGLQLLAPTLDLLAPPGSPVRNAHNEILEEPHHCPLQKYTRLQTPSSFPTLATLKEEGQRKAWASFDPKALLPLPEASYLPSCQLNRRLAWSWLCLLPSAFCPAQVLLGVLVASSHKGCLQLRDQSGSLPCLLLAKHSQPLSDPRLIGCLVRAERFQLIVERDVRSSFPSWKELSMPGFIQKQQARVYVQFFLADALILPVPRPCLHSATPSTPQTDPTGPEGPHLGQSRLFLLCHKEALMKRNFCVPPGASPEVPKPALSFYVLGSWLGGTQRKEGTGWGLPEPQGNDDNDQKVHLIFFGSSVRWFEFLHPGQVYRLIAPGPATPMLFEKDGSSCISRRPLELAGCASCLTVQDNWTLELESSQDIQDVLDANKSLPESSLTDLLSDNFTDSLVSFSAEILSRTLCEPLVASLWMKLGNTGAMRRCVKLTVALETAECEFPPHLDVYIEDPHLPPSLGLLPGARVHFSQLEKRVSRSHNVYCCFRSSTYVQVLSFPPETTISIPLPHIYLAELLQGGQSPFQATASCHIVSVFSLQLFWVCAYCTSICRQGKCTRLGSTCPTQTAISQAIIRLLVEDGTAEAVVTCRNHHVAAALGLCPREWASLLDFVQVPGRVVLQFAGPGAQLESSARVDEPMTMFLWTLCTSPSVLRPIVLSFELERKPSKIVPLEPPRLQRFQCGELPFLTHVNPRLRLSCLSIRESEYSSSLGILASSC
UniProt P50461: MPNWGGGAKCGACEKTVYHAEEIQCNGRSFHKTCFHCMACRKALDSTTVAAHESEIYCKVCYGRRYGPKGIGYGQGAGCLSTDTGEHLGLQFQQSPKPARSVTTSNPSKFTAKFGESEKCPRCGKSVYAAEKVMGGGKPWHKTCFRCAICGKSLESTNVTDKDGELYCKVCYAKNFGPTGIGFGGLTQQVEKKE
UniProt Q9H467: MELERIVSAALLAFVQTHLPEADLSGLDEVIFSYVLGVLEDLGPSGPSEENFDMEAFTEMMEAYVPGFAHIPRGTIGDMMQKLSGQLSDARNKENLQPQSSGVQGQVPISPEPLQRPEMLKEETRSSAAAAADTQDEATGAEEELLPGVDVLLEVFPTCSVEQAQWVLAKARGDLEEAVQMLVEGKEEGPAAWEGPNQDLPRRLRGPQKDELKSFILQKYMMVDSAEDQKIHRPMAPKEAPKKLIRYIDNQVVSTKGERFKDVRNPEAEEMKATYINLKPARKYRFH
UniProt Q96HD1: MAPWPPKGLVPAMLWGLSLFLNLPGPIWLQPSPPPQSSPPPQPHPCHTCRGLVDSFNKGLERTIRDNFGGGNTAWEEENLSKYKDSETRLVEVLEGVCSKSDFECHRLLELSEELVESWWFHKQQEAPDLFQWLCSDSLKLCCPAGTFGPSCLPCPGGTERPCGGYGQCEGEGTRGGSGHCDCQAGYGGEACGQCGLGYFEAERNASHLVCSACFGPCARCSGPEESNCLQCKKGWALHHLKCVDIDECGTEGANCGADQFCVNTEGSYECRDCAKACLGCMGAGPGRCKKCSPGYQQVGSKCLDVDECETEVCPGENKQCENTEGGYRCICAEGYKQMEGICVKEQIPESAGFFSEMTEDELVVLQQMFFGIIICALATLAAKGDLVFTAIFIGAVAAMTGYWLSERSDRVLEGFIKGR
UniProt Q12996: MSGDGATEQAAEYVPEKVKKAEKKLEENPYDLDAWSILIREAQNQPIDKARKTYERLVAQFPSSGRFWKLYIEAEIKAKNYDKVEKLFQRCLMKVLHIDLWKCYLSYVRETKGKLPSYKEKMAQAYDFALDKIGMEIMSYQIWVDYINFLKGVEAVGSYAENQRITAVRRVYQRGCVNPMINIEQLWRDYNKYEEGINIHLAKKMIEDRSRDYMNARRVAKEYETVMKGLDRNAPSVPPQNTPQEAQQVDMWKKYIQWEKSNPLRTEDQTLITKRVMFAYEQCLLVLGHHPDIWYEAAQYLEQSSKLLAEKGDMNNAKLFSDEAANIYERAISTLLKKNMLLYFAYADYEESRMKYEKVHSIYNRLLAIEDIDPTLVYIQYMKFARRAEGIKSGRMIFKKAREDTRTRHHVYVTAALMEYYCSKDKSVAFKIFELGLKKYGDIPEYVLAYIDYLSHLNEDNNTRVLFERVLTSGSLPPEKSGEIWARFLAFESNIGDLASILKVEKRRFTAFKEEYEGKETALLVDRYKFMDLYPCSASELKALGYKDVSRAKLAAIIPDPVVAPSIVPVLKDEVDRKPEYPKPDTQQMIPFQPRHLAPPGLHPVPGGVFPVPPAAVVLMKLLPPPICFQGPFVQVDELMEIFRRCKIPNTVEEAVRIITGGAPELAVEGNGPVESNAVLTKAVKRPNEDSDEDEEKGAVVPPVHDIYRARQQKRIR
UniProt Q08257: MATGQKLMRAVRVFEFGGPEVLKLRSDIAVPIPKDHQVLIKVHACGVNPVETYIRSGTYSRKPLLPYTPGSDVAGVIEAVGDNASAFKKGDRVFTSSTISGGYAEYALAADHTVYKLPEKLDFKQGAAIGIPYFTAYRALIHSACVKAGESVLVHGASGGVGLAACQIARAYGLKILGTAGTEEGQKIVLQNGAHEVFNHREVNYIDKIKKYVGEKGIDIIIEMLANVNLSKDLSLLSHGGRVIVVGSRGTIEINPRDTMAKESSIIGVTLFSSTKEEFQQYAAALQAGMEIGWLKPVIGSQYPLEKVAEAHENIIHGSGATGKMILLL
UniProt P41240: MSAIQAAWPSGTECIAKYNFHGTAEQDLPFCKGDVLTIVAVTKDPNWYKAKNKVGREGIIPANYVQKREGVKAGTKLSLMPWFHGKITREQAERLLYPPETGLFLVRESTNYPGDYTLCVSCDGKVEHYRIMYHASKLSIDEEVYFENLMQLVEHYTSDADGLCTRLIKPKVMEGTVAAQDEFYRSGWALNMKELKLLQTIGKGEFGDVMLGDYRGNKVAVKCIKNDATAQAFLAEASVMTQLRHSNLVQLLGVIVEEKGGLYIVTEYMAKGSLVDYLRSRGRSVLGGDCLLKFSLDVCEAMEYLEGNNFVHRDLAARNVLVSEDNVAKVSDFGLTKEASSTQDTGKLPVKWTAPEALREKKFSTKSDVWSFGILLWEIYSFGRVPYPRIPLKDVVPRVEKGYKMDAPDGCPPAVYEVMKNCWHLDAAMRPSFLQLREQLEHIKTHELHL
UniProt P00387: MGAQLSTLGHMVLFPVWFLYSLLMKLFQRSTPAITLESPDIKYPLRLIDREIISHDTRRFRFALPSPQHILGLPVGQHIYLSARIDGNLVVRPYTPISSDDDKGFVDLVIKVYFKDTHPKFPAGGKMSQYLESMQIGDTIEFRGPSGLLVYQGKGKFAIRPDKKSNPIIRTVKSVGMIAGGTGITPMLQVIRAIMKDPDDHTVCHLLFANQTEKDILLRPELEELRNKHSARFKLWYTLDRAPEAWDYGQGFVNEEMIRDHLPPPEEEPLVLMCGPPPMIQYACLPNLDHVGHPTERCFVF
UniProt O43169: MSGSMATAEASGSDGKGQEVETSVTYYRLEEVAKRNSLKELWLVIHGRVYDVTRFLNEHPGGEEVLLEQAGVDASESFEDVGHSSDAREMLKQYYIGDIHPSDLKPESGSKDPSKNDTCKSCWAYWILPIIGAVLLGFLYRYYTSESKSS
UniProt Q8IUI8: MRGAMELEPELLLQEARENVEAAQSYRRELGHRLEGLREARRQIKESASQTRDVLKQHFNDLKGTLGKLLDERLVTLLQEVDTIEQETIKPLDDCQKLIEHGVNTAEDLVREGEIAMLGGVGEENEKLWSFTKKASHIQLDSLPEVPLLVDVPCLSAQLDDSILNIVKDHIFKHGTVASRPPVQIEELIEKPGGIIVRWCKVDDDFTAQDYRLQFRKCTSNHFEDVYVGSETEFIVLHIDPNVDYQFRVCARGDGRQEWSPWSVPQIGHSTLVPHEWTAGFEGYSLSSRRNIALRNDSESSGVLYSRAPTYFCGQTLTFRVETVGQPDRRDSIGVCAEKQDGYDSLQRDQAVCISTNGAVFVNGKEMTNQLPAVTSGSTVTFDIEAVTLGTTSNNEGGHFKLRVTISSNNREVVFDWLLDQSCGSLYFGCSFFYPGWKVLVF
UniProt P08574: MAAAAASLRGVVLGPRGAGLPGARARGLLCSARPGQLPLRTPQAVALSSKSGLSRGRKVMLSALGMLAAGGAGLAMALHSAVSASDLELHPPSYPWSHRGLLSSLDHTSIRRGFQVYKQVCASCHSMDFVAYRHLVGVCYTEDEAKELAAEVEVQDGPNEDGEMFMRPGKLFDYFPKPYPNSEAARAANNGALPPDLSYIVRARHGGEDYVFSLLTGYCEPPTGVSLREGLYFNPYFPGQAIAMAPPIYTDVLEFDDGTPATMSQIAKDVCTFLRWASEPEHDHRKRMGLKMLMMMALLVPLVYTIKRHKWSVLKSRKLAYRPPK
UniProt Q6UXH1: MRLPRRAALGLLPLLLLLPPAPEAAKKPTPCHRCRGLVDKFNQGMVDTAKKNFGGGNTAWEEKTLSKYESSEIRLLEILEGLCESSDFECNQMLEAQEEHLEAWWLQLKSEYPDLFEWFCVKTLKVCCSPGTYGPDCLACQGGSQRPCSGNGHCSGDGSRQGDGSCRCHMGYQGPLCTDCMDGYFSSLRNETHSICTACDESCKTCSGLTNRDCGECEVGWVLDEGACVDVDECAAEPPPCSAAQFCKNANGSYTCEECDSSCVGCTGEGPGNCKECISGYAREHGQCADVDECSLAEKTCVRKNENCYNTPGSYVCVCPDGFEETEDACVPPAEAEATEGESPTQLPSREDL
UniProt Q13620, whole entry, looked up: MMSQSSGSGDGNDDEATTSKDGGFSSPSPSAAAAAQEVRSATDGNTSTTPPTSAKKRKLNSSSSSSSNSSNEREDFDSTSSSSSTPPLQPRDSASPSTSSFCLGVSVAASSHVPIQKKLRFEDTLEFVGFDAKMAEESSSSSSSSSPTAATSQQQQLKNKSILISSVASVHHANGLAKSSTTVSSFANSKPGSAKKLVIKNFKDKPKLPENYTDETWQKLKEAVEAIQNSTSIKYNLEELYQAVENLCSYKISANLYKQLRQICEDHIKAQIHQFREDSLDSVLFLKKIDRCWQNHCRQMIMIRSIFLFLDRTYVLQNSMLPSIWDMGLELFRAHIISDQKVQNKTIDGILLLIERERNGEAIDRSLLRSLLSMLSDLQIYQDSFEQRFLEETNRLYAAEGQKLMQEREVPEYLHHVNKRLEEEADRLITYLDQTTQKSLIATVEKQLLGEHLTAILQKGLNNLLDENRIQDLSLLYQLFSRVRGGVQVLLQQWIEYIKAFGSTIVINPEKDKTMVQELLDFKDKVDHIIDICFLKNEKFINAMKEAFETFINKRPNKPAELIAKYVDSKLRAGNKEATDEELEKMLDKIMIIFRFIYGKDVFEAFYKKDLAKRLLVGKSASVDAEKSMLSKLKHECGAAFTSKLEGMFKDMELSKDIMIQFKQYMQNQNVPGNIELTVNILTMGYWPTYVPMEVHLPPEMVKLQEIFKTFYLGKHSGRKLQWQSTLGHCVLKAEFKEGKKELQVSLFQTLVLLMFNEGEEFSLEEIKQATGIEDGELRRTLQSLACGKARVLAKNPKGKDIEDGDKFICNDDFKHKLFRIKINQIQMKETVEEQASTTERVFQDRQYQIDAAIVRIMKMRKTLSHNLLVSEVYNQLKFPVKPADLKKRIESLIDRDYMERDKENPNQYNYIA
UniProt P10619: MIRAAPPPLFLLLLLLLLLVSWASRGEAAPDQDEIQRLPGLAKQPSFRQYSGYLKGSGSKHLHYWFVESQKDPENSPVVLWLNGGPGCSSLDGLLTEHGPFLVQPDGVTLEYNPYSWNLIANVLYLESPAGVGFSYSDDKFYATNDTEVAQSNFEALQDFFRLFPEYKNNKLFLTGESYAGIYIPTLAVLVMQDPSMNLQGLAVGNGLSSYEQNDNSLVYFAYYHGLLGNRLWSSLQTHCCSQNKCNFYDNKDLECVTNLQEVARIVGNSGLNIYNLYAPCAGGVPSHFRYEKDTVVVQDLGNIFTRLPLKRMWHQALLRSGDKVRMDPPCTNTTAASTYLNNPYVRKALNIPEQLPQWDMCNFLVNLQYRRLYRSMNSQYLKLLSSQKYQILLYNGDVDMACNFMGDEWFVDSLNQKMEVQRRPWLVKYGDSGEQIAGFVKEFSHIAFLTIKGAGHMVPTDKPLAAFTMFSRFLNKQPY

[2] = compound: CC1=C(SC2=C1C(=N[C@H](C3=NN=C(N32)C)CC(=O)N)C4=CC=C(C=C4)Cl)C
Outline: as §1

[3] = compound: CC1=C2C(=CC=C1)N=C(N(C2=O)C3=CC=CC=C3C)CN4C=NC5=C(N=CN=C54)N
Outline: as §1

[4] = compound: Cc1sc2c(c1C)C(c1ccc(Cl)cc1)=N[C@@H](CC(=O)OC(C)(C)C)c1nnc(C)n1-2
Outline: as §1

[5] = compound: c1ccc([C@@H]2C[C@H]2NC2CCNCC2)cc1
Outline: as §1

Measured: log2 fold change

CSNK1E (UniProt P49674)
inactive: [1] -0.004 | [2] -0.072 | [3] -0.031 | [4] 0.031 | [5] -0.005

CTC1 (UniProt Q2NKJ3)
inactive: [1] -0.052 | [2] 0.062 | [3] 0.038 | [4] 0.044 | [5] -0.002

CSTF2T (UniProt Q9H0L4)
inactive: [1] 0 | [2] -0.025 | [3] 0.008 | [4] 0.034 | [5] 0.007

CSRP3 (UniProt P50461)
inactive: [1] 0.014 | [2] -0.115 | [3] 0.049 | [4] -0.055 | [5] -0.445

CUEDC2 (UniProt Q9H467)
inactive: [1] 0.074 | [2] 0.019 | [3] -0.017 | [4] 0.013 | [5] 0.11

Quoted from the results shown (2 entries):
CSTF2T (UniProt Q9H0L4)
inactive: [1] 0 | [2] -0.025 | [3] 0.008 | [4] 0.034 | [5] 0.007

CSRP3 (UniProt P50461)
inactive: [1] 0.014 | [2] -0.115 | [3] 0.049 | [4] -0.055 | [5] -0.445

The results go on:

CRELD1 isoform 2 (UniProt Q96HD1)
inactive: [1] 0.055 | [2] 0.006 | [3] 0.01 | [4] 0.017 | [5] -0.037

CSTF3 (UniProt Q12996)
inactive: [1] -0.011 | [2] 0.015 | [3] 0 | [4] 0.03 | [5] 0.043

CRYZ (UniProt Q08257)
inactive: [1] 0.008 | [2] -0.021 | [3] 0.009 | [4] -0.024 | [5] -0.084

CSK (UniProt P41240)
inactive: [1] -0.039 | [2] -0.049 | [3] -0.019 | [4] -0.057 | [5] -0.037

CYB5R3 isoform 3 (UniProt P00387)
inactive: [1] 0.035 | [2] -0.03 | [3] 0.007 | [4] 0.008 | [5] 0.02

CTPS1 (UniProt P17812)
inactive: [1] -0.02 | [2] -0.013 | [3] -0.029 | [4] -0.014 | [5] 0.023

CSNK2B (UniProt P67870)
inactive: [1] -0.02 | [2] 0.024 | [3] -0.068 | [4] 0.03 | [5] -0.016

CXorf38 (UniProt Q8TB03)
inactive: [1] 0.021 | [2] 0.007 | [3] -0.021 | [4] -0.004 | [5] 0.031

CYB5B (UniProt O43169)
inactive: [1] -0.109 | [2] -0.162 | [3] 0.019 | [4] -0.031 | [5] -0.054

CRLF3 (UniProt Q8IUI8)
inactive: [1] 0.022 | [2] -0.022 | [3] 0.005 | [4] -0.006 | [5] -0.004

CWF19L2 (UniProt Q2TBE0)
inactive: [1] -0.025 | [2] 0.022 | [3] 0.02 | [4] -0.083 | [5] 0.027

CRYAB (UniProt P02511)
inactive: [1] -0.092 | [2] 0.085 | [3] -0.007 | [4] -0.026 | [5] -0.035

CRNKL1 (UniProt Q9BZJ0)
inactive: [1] -0.073 | [2] 0.011 | [3] -0.012 | [4] -0.326 | [5] 0.037

CYC1 (UniProt P08574)
inactive: [1] 0.006 | [2] 0 | [3] -0.046 | [4] 0.069 | [5] -0.014

CRELD2 isoform 5 (UniProt Q6UXH1)
inactive: [1] 0.336 | [2] 0.001 | [3] -0.032 | [4] -0.078 | [5] -0.021

CUL4B (UniProt Q13620)
inactive: [1] 0.004 | [2] 0.005 | [3] 0.001 | [4] -0.044 | [5] -0.063

CSRP1 (UniProt P21291)
inactive: [1] 0.01 | [2] 0.013 | [3] 0.008 | [4] -0.003 | [5] -0.198

CTSA (UniProt P10619)
inactive: [1] 0 | [2] 0.035 | [3] 0.005 | [4] 0.036 | [5] -0.022

CTBP2 isoform 2 (UniProt P56545)
inactive: [1] -0.038 | [2] 0.003 | [3] 0.039 | [4] 0.005 | [5] -0.004

— the supplement of paper PMC10849652
